According to publication PMC7037546, “High Cell Selectivity and Bactericidal Mechanism of Symmetric Peptides Centered on D-Pro–Gly Pairs” (International Journal of Molecular Sciences, 2020):
Non-standard residues stand in square brackets, D forms with d. Residues, ends and D or L forms follow the SMILES beside them. No end group written: not given here.

Key:
Gram-negative bacteria = conditions: MHC10/GM against Gram-negative bacteria
Procedure: (§1) The antimicrobial activity of the designed peptides was examined using the micro-dilution method described previously. The bacteria were cultured for 16 h in MHB at 37 °C, and the microbial suspension was diluted to a final concentration of 10^5 colony-forming units (CFU)/mL. Then, 50 µL of MHB containing different concentrations peptides (0.25–256 µM) was mixed with 50 µL of bacterial solution, and the mixture was added to a 96-well plate. […] The assays were performed three times.

Gram-positive bacteria = assay: Geometric mean of MICs and therapeutic index, Gram (+); assay type: cell-based; conditions: MHC10/GM against Gram-positive bacteria
Procedure: as §1

Row | Compound | TI (−) (therapeutic index, MHC10/GM) (Gram-negative bacteria) | TI (+) (therapeutic index, MHC10/GM) (Gram-positive bacteria)
1 | N=C(N)NCCC[C@H](NC(=O)CNC(=O)[C@H]1CCCN1C(=O)[C@H](CCCNC(=N)N)NC(=O)[C@H](CCCNC(=N)N)NC(=O)[C@H](Cc1ccccc1)NC(=O)[C@H](Cc1ccccc1)NC(=O)[C@H](CCCNC(=N)N)NC(=O)[C@H](Cc1ccccc1)NC(=O)[C@@H](N)Cc1ccccc1)C(=O)N[C@@H](CCCNC(=N)N)C(=O)N[C@@H](Cc1ccccc1)C(=O)N[C@@H](Cc1ccccc1)C(=O)N[C@@H](CCCNC(=N)N)C(=O)N[C@@H](Cc1ccccc1)C(=O)N[C@@H](Cc1ccccc1)C(N)=O [FRpG] (H-FFRFFRR[dP]GRRFFRFF-NH2) | 9.2 | 5.7
2 | CC[C@H](C)[C@H](N)C(=O)N[C@H](C(=O)N[C@@H](CCCNC(=N)N)C(=O)N[C@H](C(=O)N[C@H](C(=O)N[C@@H](CCCNC(=N)N)C(=O)N[C@@H](CCCNC(=N)N)C(=O)N1CCC[C@@H]1C(=O)NCC(=O)N[C@@H](CCCNC(=N)N)C(=O)N[C@@H](CCCNC(=N)N)C(=O)N[C@H](C(=O)N[C@H](C(=O)N[C@@H](CCCNC(=N)N)C(=O)N[C@H](C(=O)N[C@H](C(N)=O)[C@@H](C)CC)[C@@H](C)CC)[C@@H](C)CC)[C@@H](C)CC)[C@@H](C)CC)[C@@H](C)CC)[C@@H](C)CC [IRpG] (H-IIRIIRR[dP]GRRIIRII-NH2) | 32 | 2
3 | CC(C)C[C@H](NC(=O)[C@H](CC(C)C)NC(=O)[C@H](CCCNC(=N)N)NC(=O)[C@H](CC(C)C)NC(=O)[C@H](CC(C)C)NC(=O)[C@H](CCCNC(=N)N)NC(=O)[C@H](CCCNC(=N)N)NC(=O)CNC(=O)[C@H]1CCCN1C(=O)[C@H](CCCNC(=N)N)NC(=O)[C@H](CCCNC(=N)N)NC(=O)[C@H](CC(C)C)NC(=O)[C@H](CC(C)C)NC(=O)[C@H](CCCNC(=N)N)NC(=O)[C@H](CC(C)C)NC(=O)[C@@H](N)CC(C)C)C(N)=O [LRpG] (H-LLRLLRR[dP]GRRLLRLL-NH2) | 73.1 | 13.5
4 | CC(C)C[C@H](NC(=O)CN)C(=O)N[C@@H](CCCNC(=N)N)C(=O)N[C@@H](CC(C)C)C(=O)N[C@@H](CC(C)C)C(=O)N[C@@H](CCCNC(=N)N)C(=O)N[C@@H](CCCNC(=N)N)C(=O)N[C@@H](CC(C)C)C(=O)N[C@@H](CC(C)C)C(=O)N[C@@H](CCCNC(=N)N)C(=O)N[C@@H](CCCNC(=N)N)C(=O)N[C@@H](CC(C)C)C(=O)N[C@@H](CC(C)C)C(=O)N[C@@H](CCCNC(=N)N)C(=O)N[C@@H](CC(C)C)C(=O)N1CCC[C@@H]1C(N)=O [LRα] (H-GLRLLRRLLRRLLRL[dP]-NH2) | 1.3 | 0.5
5 | FFRFFRRGGRRFFRFF-NH2 [FRGG] | 8 | 4.8
6 | IIRIIRRGGRRIIRII-NH2 [IRGG] | 24.2 | 2
7 | LLRLLRRGGRRLLRLL-NH2 [LRGG] | 55.6 | 11.2
